Source: patent publication US20050013939A1, “Boron-based wood preservatives and treatment of wood with boron-based preservatives” (priority 2001, published 2005)

Tests used:
[1] = Examples 2 and 3: dipping of radiata pine in pure trimethyl borate, retention and spot-test penetration
[2] = Example 6: penetration of TMB in radiata pine treated by Lowry process or by dipping; settings: for Boric acid equivalent % / Penetration % / Net uptake / Gross uptake: MC 10-12%
[3] = Example 5: emission and dissipation of TMB and methanol in desiccator after momentary immersion; design: species or system radiata pine
[4] = Example 1: dipping of messmate in pure trimethyl borate, retention and spot-test penetration; design: species or system Eucalyptus Obliqua
[5] = Example 4: dipping 30 seconds in different solution temperatures of TMB; design: species or system radiata pine
[6] = Dipping 30 seconds, pure TMB 100%
[7] = LP, 1.25% TMB (vol/vol) in kerosene
[8] = LP, 2.50% TMB (vol/vol) in kerosene
[9] = LP, 5.00% TMB (vol/vol) in kerosene
[10] = wood samples at 12% moisture content

## COB(OC)OC [TMB, trimethyl borate]
[1]; 2 second immersion
  Mean charge retention: 8.3 kg/m3 TMB
  spot-testing of preservative penetration: total penetration of the cross-section
[1]; 30 seconds dip, sealed in polythene envelope, within 2 hours
  spot-testing of preservative penetration: substantial penetration
[1]; Example 3, no envelope
  chemical penetration: Total chemical penetration
  loss of chemical by surface hydrolysis and evaporation: substantial loss of chemical
[1]; radiata pine 6% moisture content, 30 seconds dip
  mean charge retention of TMB: 13.4 kg/m3
[2]; [6]
  Boric acid equivalent %: 1.15%
  Penetration %: 46%
[2]; Dipping 30 seconds, pure TMB 100%, 5 days in polyester bag
  Net uptake: 6.04 l/m^3
[2]; [7]
  Boric acid equivalent %: 0.13%
  Gross uptake: 87 l/m^3
  Net uptake: 39 l/m^3
  Penetration %: 95%
[2]; [8]
  Boric acid equivalent %: 0.21%
  Gross uptake: 76 l/m^3
  Net uptake: 33 l/m^3
  Penetration %: 80%
[2]; [9]
  Boric acid equivalent %: 0.53%
  Gross uptake: 92 l/m^3
  Net uptake: 40 l/m^3
  Penetration %: 85%
[2]; treated by LP, all cases
  penetration of sapwood samples: over 90%
[3]; 12% moisture content
  changes in the volume of the samples: 1.03%
[3]; 12% moisture content, 8 days after treatment
  mean retention of boric acid: 1.69 % wt/wt
[3]; 5 minutes after treatment
  TMB concentration in the desiccator environment: 426 ppm
[3]; 22 hours after treatment
  TMB concentration in the desiccator environment: 20 ppm
[3]; after 9 days
  TMB concentration in the desiccator environment: 5 ppm
[3]; [10]
  mean depth of penetration: 8.67 mm
  mean percentage TMB penetration: 51%
[4]; matched messmate, dipping for 1 minute
  uptake: 3.6 kg/m3
[4]; messmate 6% moisture content, dipping with initial vacuum -65 kPa 5 minutes
  Preservative retention (kgs TMB): approximately 4.8 kg/m3
[4]; messmate 6% moisture content, vacuum dipping, 24 hours in polythene envelope
  depth of penetration (spot-testing): 8 mm
[5]; solution temperature 5 °C
  Average Chemical Uptake: 19.16 Kg/m3
[5]; solution temperature 20 °C
  Average Chemical Uptake: 14.738 Kg/m3
[5]; solution temperature −10 °C
  Average Chemical Uptake: 24.122 Kg/m3
